Results deposited as PubChem BioAssay AID652259 (Drosophila RNAi Screening Center, 2013).

- Test: 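Knock-downs that push a Wingless-driven reporter up or down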 (primary screen)
- System: Drosophila clone 8 imaginal disc epithelial cells
- Knock-down reagent: long dsRNA against Drosophila genes
- Challenge: pathway stimulated by co-transfected Wingless expression plasmid
- Measurement: 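Firefly luciferase from a tcf-site Wingless reporter, measured alongside co-transfected Renilla luciferase that tracks transfection; pathway stimulated by a Wingless plasmid; the firefly-to-Renilla ratio is not deposited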
- Reading the numbers: firefly reporter light: higher = more Wg reporter light, before normalisation; Renilla control light: higher = more transfected or surviving cells
- Hit rule: 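Strong candidates differ from their plate mean by at least two out of four per-plate statistical tests; weak candidates meet just one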
- Calls: active = candidate regulator (raises or lowers reporter); inactive = not a candidate
In all, the deposit lists about 22,000 reagents; this is a random part of those that have a named target and a result. In the full data, 233 (1.1%) got an active call. 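Light values are raw, unnormalised plate reads; the ratio scores behind the reporter calls were not deposited.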 The record does not give: the amount of reagent, the time to read-out, the dose of the treatment.

{"target gene": "CG9308", "amplicon": "DRSC04539", "firefly reporter light, replicate 1": 2465, "firefly reporter light, replicate 2": 5848, "Renilla control light, replicate 1": 765, "Renilla control light, replicate 2": 2536, "call": "inactive"}
{"target gene": "Cpr64Ac", "amplicon": "DRSC08462", "firefly reporter light, replicate 1": 5577, "Renilla control light, replicate 1": 3271, "call": "inactive"}
{"target gene": "CG14422", "amplicon": "DRSC17919", "firefly reporter light, replicate 1": 22135, "Renilla control light, replicate 1": 21266, "call": "inactive"}
{"target gene": "mkg-p", "amplicon": "DRSC10777", "firefly reporter light, replicate 1": 3479, "Renilla control light, replicate 1": 1766, "call": "inactive"}
{"target gene": "Ucp4C", "amplicon": "DRSC03132", "firefly reporter light, replicate 1": 4506, "firefly reporter light, replicate 2": 5756, "Renilla control light, replicate 1": 1222, "Renilla control light, replicate 2": 2648, "call": "inactive"}
{"target gene": "CG8031", "amplicon": "DRSC16364", "firefly reporter light, replicate 1": 9148, "Renilla control light, replicate 1": 3180, "call": "inactive"}
{"target gene": "SamDC", "amplicon": "DRSC03429", "firefly reporter light, replicate 1": 8074, "Renilla control light, replicate 1": 3088, "call": "inactive"}
{"target gene": "y", "amplicon": "DRSC18853", "firefly reporter light, replicate 1": 18224, "Renilla control light, replicate 1": 10305, "call": "inactive"}
{"target gene": "CG13258", "amplicon": "DRSC02244", "firefly reporter light, replicate 1": 3552, "firefly reporter light, replicate 2": 4857, "Renilla control light, replicate 1": 1329, "Renilla control light, replicate 2": 2326, "call": "inactive"}
{"target gene": "Fibp", "amplicon": "DRSC11031", "firefly reporter light, replicate 1": 3872, "Renilla control light, replicate 1": 2352, "call": "inactive"}
{"target gene": "CG15653", "amplicon": "DRSC04244", "firefly reporter light, replicate 1": 2824, "firefly reporter light, replicate 2": 8714, "Renilla control light, replicate 1": 924, "Renilla control light, replicate 2": 4204, "call": "inactive"}
{"target gene": "CR43361", "amplicon": "DRSC17206", "firefly reporter light, replicate 1": 26186, "Renilla control light, replicate 1": 14201, "call": "inactive"}
{"target gene": "Cyp9f3", "amplicon": "DRSC16636", "firefly reporter light, replicate 1": 11958, "Renilla control light, replicate 1": 3171, "call": "inactive"}
{"target gene": "Cep164", "amplicon": "DRSC20163", "firefly reporter light, replicate 1": 19224, "Renilla control light, replicate 1": 10049, "call": "inactive"}
{"target gene": "CG11475", "amplicon": "DRSC04113", "firefly reporter light, replicate 1": 7909, "Renilla control light, replicate 1": 2551, "call": "inactive"}
{"target gene": "CG9040", "amplicon": "DRSC11053", "firefly reporter light, replicate 1": 3288, "Renilla control light, replicate 1": 1206, "call": "inactive"}
{"target gene": "yuri", "amplicon": "DRSC01453", "firefly reporter light, replicate 1": 13260, "Renilla control light, replicate 1": 7856, "call": "inactive"}
{"target gene": "yuri", "amplicon": "DRSC01454", "reporter change call, replicate 1": "Wg reporter activity raised", "firefly reporter light, replicate 1": 27660, "Renilla control light, replicate 1": 7433, "call": "inactive"}
{"target gene": "yuri", "amplicon": "DRSC01943", "firefly reporter light, replicate 1": 2834, "firefly reporter light, replicate 2": 4908, "Renilla control light, replicate 1": 1085, "Renilla control light, replicate 2": 2602, "call": "inactive"}
{"target gene": "yuri", "amplicon": "DRSC01972", "firefly reporter light, replicate 1": 10884, "Renilla control light, replicate 1": 3081, "call": "inactive"}
{"target gene": "CG14803", "amplicon": "DRSC18556", "firefly reporter light, replicate 1": 25062, "Renilla control light, replicate 1": 16648, "call": "inactive"}
{"target gene": "Sou", "amplicon": "DRSC04356", "firefly reporter light, replicate 1": 2915, "firefly reporter light, replicate 2": 7738, "Renilla control light, replicate 1": 641, "Renilla control light, replicate 2": 2608, "call": "inactive"}
{"target gene": "CG5498", "amplicon": "DRSC11608", "firefly reporter light, replicate 1": 3152, "Renilla control light, replicate 1": 1736, "call": "inactive"}
{"target gene": "CG7084", "amplicon": "DRSC16194", "firefly reporter light, replicate 1": 3817, "firefly reporter light, replicate 2": 8008, "Renilla control light, replicate 1": 1691, "Renilla control light, replicate 2": 2682, "call": "inactive"}
{"target gene": "yin", "amplicon": "DRSC18854", "firefly reporter light, replicate 1": 4118, "firefly reporter light, replicate 2": 10133, "Renilla control light, replicate 1": 1616, "Renilla control light, replicate 2": 3453, "call": "inactive"}
{"target gene": "yin", "amplicon": "DRSC21889", "firefly reporter light, replicate 1": 5.98e5, "firefly reporter light, replicate 2": 6.68e5, "Renilla control light, replicate 1": 2.46e5, "Renilla control light, replicate 2": 2.92e5, "call": "inactive"}

In a second layout: 3 of the entries above
CG7084 [DRSC16194]
- firefly reporter light, replicate 1: 3817
- firefly reporter light, replicate 2: 8008
- Renilla control light, replicate 1: 1691
- Renilla control light, replicate 2: 2682
- call: inactive

yin [DRSC18854]
- firefly reporter light, replicate 1: 4118
- firefly reporter light, replicate 2: 10133
- Renilla control light, replicate 1: 1616
- Renilla control light, replicate 2: 3453
- call: inactive

yin [DRSC21889]
- firefly reporter light, replicate 1: 5.98e5
- firefly reporter light, replicate 2: 6.68e5
- Renilla control light, replicate 1: 2.46e5
- Renilla control light, replicate 2: 2.92e5
- call: inactive
